Experimental data as given in patent publication US9926282B2, “Phthalazinones and isoquinolinones as rock inhibitors” (BRISTOL-MYERS SQUIBB COMPANY, priority 2013, dated 2018).
Structures can show the parent of a compound that is named as a salt. At least one structure is not confirmed: it was looked up by name or label, or the drawing left a doubt.

The chains behind the UniProt entries cited, without tags or fusion partners.
UniProt O75116, whole entry, species assumed: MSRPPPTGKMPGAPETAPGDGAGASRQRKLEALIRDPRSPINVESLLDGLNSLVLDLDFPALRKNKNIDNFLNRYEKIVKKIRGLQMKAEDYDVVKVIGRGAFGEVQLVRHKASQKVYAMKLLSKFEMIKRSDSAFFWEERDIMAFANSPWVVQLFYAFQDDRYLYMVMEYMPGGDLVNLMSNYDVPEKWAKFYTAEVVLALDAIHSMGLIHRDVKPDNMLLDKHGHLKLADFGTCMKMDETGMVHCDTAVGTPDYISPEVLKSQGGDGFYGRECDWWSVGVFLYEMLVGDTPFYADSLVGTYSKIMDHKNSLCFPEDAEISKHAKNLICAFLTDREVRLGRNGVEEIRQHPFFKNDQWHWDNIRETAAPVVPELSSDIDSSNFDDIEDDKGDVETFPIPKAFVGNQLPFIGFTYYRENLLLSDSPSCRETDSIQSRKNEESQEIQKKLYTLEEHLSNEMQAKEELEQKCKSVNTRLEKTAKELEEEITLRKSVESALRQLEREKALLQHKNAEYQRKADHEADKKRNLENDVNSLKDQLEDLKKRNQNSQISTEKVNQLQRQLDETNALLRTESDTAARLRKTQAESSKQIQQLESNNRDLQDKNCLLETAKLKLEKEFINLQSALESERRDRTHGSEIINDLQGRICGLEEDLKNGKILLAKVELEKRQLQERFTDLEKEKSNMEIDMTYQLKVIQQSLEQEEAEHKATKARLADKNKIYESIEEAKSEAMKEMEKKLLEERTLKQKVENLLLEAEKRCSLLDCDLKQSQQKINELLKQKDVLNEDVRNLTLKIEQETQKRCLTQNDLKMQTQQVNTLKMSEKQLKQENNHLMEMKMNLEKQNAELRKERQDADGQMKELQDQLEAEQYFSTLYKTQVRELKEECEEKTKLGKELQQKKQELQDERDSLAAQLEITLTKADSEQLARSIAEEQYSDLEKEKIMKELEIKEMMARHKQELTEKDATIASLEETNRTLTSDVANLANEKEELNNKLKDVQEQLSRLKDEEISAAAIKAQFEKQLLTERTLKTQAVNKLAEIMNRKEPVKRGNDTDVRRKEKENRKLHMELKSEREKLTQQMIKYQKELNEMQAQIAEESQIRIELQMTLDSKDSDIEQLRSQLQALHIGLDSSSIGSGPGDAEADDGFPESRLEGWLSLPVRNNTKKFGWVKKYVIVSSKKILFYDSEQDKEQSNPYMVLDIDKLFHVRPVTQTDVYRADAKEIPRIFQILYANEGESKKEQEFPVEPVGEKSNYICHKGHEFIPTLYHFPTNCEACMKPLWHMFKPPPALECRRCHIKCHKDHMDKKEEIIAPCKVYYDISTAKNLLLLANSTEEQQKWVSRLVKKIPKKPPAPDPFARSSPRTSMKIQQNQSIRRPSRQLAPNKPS

Biological target: ROCK2 (Homo sapiens (Human), UniProt O75116)
Experiment: ROCK assay (LABCHIP peptide phosphorylation), ROCK2
Type: biochemical
Conditions: 5 μM ATP, 1.5 μM peptide substrate

## O=C(Nc1ccc(-c2n[nH]c(=O)c3ccccc23)cc1)c1cnn(C2CCC2)c1 [Example 385, TFA]
  IC50: 0.0001 to 0.1 µM
